Assay results published in patent publication US20090298167A1.
Results are given in words; binding and its absence hold for the method and conditions named. Some binding calls cover weakened binding; strength is not graded here.

Sequences of proteins named here, by UniProt entry; tags and fusion partners are left off. A change or cut given only in a name is not applied to a line headed by its entry.
UniProt Q9HBE5: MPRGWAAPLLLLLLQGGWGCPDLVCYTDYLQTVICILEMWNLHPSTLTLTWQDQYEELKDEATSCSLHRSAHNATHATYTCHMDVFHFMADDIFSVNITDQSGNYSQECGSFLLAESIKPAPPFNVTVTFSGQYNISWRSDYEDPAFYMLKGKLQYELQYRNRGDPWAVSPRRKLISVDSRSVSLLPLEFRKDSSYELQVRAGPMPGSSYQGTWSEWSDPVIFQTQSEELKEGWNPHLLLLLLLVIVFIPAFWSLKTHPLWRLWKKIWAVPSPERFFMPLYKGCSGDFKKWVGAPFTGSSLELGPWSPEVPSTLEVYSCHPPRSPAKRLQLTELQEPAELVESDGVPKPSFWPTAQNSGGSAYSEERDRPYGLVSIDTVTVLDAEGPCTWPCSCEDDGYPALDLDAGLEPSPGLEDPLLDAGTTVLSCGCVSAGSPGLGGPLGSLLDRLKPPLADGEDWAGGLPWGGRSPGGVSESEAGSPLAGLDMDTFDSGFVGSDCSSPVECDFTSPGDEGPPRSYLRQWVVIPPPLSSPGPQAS
UniProt Q9JHX3: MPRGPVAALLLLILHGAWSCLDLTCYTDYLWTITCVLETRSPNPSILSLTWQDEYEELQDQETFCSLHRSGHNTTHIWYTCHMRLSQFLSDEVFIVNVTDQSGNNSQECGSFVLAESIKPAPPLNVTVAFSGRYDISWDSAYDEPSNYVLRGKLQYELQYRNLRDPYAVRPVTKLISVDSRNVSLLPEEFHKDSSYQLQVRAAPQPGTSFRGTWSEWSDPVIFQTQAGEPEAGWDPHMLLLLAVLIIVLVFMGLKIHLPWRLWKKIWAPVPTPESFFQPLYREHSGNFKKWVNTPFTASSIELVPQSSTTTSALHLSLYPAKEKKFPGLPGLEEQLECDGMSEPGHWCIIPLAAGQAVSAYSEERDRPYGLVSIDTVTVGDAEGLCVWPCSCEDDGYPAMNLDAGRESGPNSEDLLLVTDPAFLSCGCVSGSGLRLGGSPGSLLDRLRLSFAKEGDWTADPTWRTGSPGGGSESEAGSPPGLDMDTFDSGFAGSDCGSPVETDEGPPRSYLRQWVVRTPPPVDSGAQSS

Legend:
[1] = target: human IL-21R expressed on cells (human) (UniProt Q9HBE5); assay: cell ELISA on transfected CHO cells
[2] = target: murine IL-21R extracellular domain His-Flag fusion protein (murine) (UniProt Q9JHX3); assay: BIACORE, IgG captured, 50 nM murine IL-21R-H/F in flow
[3] = target: murine IL-21R extracellular domain His-Flag fusion protein (murine) (UniProt Q9JHX3); assay: BIACORE: antibody captured on anti-human IgG, 50 nM analyte injected
[4] = target: human IL-21R extracellular domain His-Flag fusion protein (human) (UniProt Q9HBE5); assay: BIACORE: antibody captured on anti-human IgG, series of human IL-21R-His/FLAG concentrations injected
[5] = target: murine IL-21R extracellular domain His-Flag fusion protein (murine) (UniProt Q9JHX3); assay: BIACORE: antibody captured on anti-human IgG, series of murine IL-21R-His/FLAG concentrations injected
[6] = target: human IL-21R expressed on cells (human) (UniProt Q9HBE5); assay: cell ELISA: CHO cells transiently expressing the receptor, antibody in conditioned medium, HRP anti-human IgG, A450

Measured: binding

B1: AbQ (antibody, human IgG1, V domains shown)
VH: QVQLQESGPGLVKPSETLSLTCAVSGYSISSGYYWGWIRQPPGKGLEWIGSISHTGNTYYNPPLKSRVTISVDTSKNQFSLKLSSVTAADTAVYYCARFMGFGRPEYWGQGTLVTVSS
VL: SSELTQDPAVSVALGQTVRITCQGDSLRTYYASWYQQKPGQAPVLVIYGKHKRPSGIPDRFSGSSSGNTASLTITGAQAEDEADYYCVARSVVGNPHVLFGGGTQLTVL
binds: [1] | [2] | [3] | [4] | [5] | [6]

B2: AbE (antibody, human IgG1, V domains shown)
VH: QVQLQESGPGLVKPSETLSLTCAVSGYSISSGYYWGWIRQPPGKGLEWIGSISHTGNTYYNPPLKSRVTISVDTSKNQFSLKLSSVTAADTAVYYCARGGGISRPEYWGQGTLVTVSS
VL: SSELTQDPAVSVALGQTVRITCQGDSLRTYYASWYQQKPGQAPVLVIYGKHKRPSGIPDRFSGSSSGNTASLTITGAQAEDEADYYCMARSRKGNPHVLFGGGTQLTVL
binds: [1] | [2] | [6]

B3: AbD (antibody, human IgG1, V domains shown)
VH: QVQLQESGPGLVKPSETLSLTCAVSGYSISSGYYWGWIRQPPGKGLEWIGSISHTGNTYYNPPLKSRVTISVDTSKNQFSLKLSSVTAADTAVYYCARGGGISRPEYWGQGTLVTVSS
VL: SSELTQDPAVSVALGQTVRITCQGDSLRTYYASWYQQKPGQAPVLVIYGKHKRPSGIPDRFSGSSSGNTASLTITGAQAEDEADYYCVTRNRYGNPHVLFGGGTQLTVL
binds: [1] | [2] | [6]

B4: AbH (antibody, human IgG1, V domains shown)
VH: QVQLQESGPGLVKPSETLSLTCAVSGYSISSGYYWGWIRQPPGKGLEWIGSISHTGNTYYNPPLKSRVTISVDTSKNQFSLKLSSVTAADTAVYYCARGGGISRPEYWGQGTLVTVSS
VL: SSELTQDPAVSVALGQTVRITCQGDSLRTYYASWYQQKPGQAPVLVIYGKHKRPSGIPDRFSGSSSGNTASLTITGAQAEDEADYYCVARAVRGNPHVLFGGGTQLTVL
binds: [1] | [2] | [6]

B5: AbR (antibody, human IgG1, V domains shown)
VH: QVQLQESGPGLVKPSETLSLTCAVSGYSISSGYYWGWIRQPPGKGLEWIGSISHTGNTYYNPPLKSRVTISVDTSKNQFSLKLSSVTAADTAVYYCARFMGFGRPEYWGQGTLVTVSS
VL: SSELTQDPAVSVALGQTVRITCQGDSLRTYYASWYQQKPGQAPVLVIYGKHKRPSGIPDRFSGSSSGNTASLTITGAQAEDEADYYCVTRSVKGNPHVLFGGGTQLTVL
binds: [1] | [2] | [3] | [4] | [5] | [6]

B6: AbJ (antibody, human IgG1, V domains shown)
VH: QVQLQESGPGLVKPSETLSLTCAVSGYSISSGYYWGWIRQPPGKGLEWIGSISHTGNTYYNPPLKSRVTISVDTSKNQFSLKLSSVTAADTAVYYCARFMGFGRPEYWGQGTLVTVSS
VL: SSELTQDPAVSVALGQTVRITCQGDSLRTYYASWYQQKPGQAPVLVIYGKHKRPSGIPDRFSGSSSGNTASLTITGAQAEDEADYYCNSRDSSGNPHVLFGGGTQLTVL
binds: [1] | [2] | [6]

B7: AbK (antibody, human IgG1, V domains shown)
VH: QVQLQESGPGLVKPSETLSLTCAVSGYSISSGYYWGWIRQPPGKGLEWIGSISHTGNTYYNPPLKSRVTISVDTSKNQFSLKLSSVTAADTAVYYCARFMGFGRPEYWGQGTLVTVSS
VL: SSELTQDPAVSVALGQTVRITCQGDSLRTYYASWYQQKPGQAPVLVIYGKHKRPSGIPDRFSGSSSGNTASLTITGAQAEDEADYYCVSRAVVGNPHVLFGGGTQLTVL
binds: [1] | [2] | [6]

B8: AbG (antibody, human IgG1, V domains shown)
VH: QVQLQESGPGLVKPSETLSLTCAVSGYSISSGYYWGWIRQPPGKGLEWIGSISHTGNTYYNPPLKSRVTISVDTSKNQFSLKLSSVTAADTAVYYCARGGGISRPEYWGQGTLVTVSS
VL: SSELTQDPAVSVALGQTVRITCQGDSLRTYYASWYQQKPGQAPVLVIYGKHKRPSGIPDRFSGSSSGNTASLTITGAQAEDEADYYCVTRSVKGNPHVLFGGGTQLTVL
binds: [1] | [2] | [6]

B9: AbF (antibody, human IgG1, V domains shown)
VH: QVQLQESGPGLVKPSETLSLTCAVSGYSISSGYYWGWIRQPPGKGLEWIGSISHTGNTYYNPPLKSRVTISVDTSKNQFSLKLSSVTAADTAVYYCARGGGISRPEYWGQGTLVTVSS
VL: SSELTQDPAVSVALGQTVRITCQGDSLRTYYASWYQQKPGQAPVLVIYGKHKRPSGIPDRFSGSSSGNTASLTITGAQAEDEADYYCSTRSRKGNPHVLFGGGTQLTVL
binds: [1] | [2] | [6]

B10: AbC (antibody, human IgG1, V domains shown)
VH: QVQLQESGPGLVKPSETLSLTCAVSGYSISSGYYWGWIRQPPGKGLEWIGSISHTGNTYYNPPLKSRVTISVDTSKNQFSLKLSSVTAADTAVYYCARGGGISRPEYWGQGTLVTVSS
VL: SSELTQDPAVSVALGQTVRITCQGDSLRTYYASWYQQKPGQAPVLVIYGKHKRPSGIPDRFSGSSSGNTASLTITGAQAEDEADYYCSSRSRHGNPHVLFGGGTQLTVL
binds: [1] | [2] | [6]

B11: AbI (antibody, human IgG1, V domains shown)
VH: QVQLQESGPGLVKPSETLSLTCAVSGYSISSGYYWGWIRQPPGKGLEWIGSISHTGNTYYNPPLKSRVTISVDTSKNQFSLKLSSVTAADTAVYYCARGGGISRPEYWGQGTLVTVSS
VL: SSELTQDPAVSVALGQTVRITCQGDSLRTYYASWYQQKPGQAPVLVIYGKHKRPSGIPDRFSGSSSGNTASLTITGAQAEDEADYYCIARSNKGNPHVLFGGGTQLTVL
binds: [1] | [2] | [6]

B12: AbL (antibody, human IgG1, V domains shown)
VH: QVQLQESGPGLVKPSETLSLTCAVSGYSISSGYYWGWIRQPPGKGLEWIGSISHTGNTYYNPPLKSRVTISVDTSKNQFSLKLSSVTAADTAVYYCARFMGFGRPEYWGQGTLVTVSS
VL: SSELTQDPAVSVALGQTVRITCQGDSLRTYYASWYQQKPGQAPVLVIYGKHKRPSGIPDRFSGSSSGNTASLTITGAQAEDEADYYCVTRNRYGNPHVLFGGGTQLTVL
binds: [1] | [2] | [6]

B13: AbO (antibody, human IgG1, V domains shown)
VH: QVQLQESGPGLVKPSETLSLTCAVSGYSISSGYYWGWIRQPPGKGLEWIGSISHTGNTYYNPPLKSRVTISVDTSKNQFSLKLSSVTAADTAVYYCARGGGISRPEYWGQGTLVTVSS
VL: SSELTQDPAVSVALGQTVRITCQGDSLRTYYASWYQQKPGQAPVLVIYGKHKRPSGIPDRFSGSSSGNTASLTITGAQAEDEADYYCVTRSAKGNPHVLFGGGTQLTVL
binds: [1] | [2] | [3] | [4] | [5] | [6]

B14: AbP (antibody, human IgG1, V domains shown)
VH: QVQLQESGPGLVKPSETLSLTCAVSGYSISSGYYWGWIRQPPGKGLEWIGSISHTGNTYYNPPLKSRVTISVDTSKNQFSLKLSSVTAADTAVYYCARGGGISRPEYWGQGTLVTVSS
VL: SSELTQDPAVSVALGQTVRITCQGDSLRTYYASWYQQKPGQAPVLVIYGKHKRPSGIPDRFSGSSSGNTASLTITGAQAEDEADYYCVSRSAKGNPHVLFGGGTQLTVL
binds: [1] | [2] | [3] | [4] | [5] | [6]

B15: AbB (antibody, human IgG1, V domains shown)
VH: QVQLQESGPGLVKPSETLSLTCAVSGYSISSGYYWGWIRQPPGKGLEWIGSISHTGNTYYNPPLKSRVTISVDTSKNQFSLKLSSVTAADTAVYYCARGGGISRPEYWGQGTLVTVSS
VL: SSELTQDPAVSVALGQTVRITCQGDSLRTYYASWYQQKPGQAPVLVIYGKHKRPSGIPDRFSGSSSGNTASLTITGAQAEDEADYYCVSRAVVGNPHVLFGGGTQLTVL
binds: [1] | [2] | [6]

B16: AbA (antibody, human IgG1, V domains shown)
VH: QVQLQESGPGLVKPSETLSLTCAVSGYSISSGYYWGWIRQPPGKGLEWIGSISHTGNTYYNPPLKSRVTISVDTSKNQFSLKLSSVTAADTAVYYCARGGGISRPEYWGQGTLVTVSS
VL: SSELTQDPAVSVALGQTVRITCQGDSLRTYYASWYQQKPGQAPVLVIYGKHKRPSGIPDRFSGSSSGNTASLTITGAQAEDEADYYCVARSVVGNPHVLFGGGTQLTVL
binds: [1] | [2] | [6]
